Source: patent US20260001914A1, “MACROCYCLIC PEPTIDES TARGETING KRAS” (Merck Sharp & Dohme LLC, priority 2022, published 2026)
pEC50: −log10 of the molar value. Not every detail of the peptide structures is certain; ends, links or a residue may be inferred. At least one compound was matched to its structure with a doubt left. *1 amine or outer side, *2 acyl side, *3 side chain or, on linkers, in order; H or OH if unused. Where a SMILES comes first, the peptide text is derived from it. Bridges are numbered along the chain shown (N, C = ends). [ ]: non-standard residue; d: D form. cBu(1-CO,cis-3-CH2NH) = O=C([C@H]1C[C@@H](CN[*:1])C1)[*:2]; NMeNva(5-imidazol-1-yl) = CN[C@@H](CCCn1ccnc1)C(=O)O; X52 = O=C([C@H](Cc1ccc(CN2CCOCC2)cc1)N[*:1])[*:2]; 1Nal = N[C@@H](Cc1cccc2ccccc12)C(=O)O; X21 = O=C([C@@H]1C[C@H]1CN[*:1])[*:2]; Phe(2-F) = N[C@@H](Cc1ccccc1F)C(=O)O; NMe3Pal = CN[C@@H](Cc1cccnc1)C(=O)O; NMeF = CN[C@@H](Cc1ccccc1)C(=O)O; PhLac = O=C(O)[C@@H](O)Cc1ccccc1; 3Pal = N[C@@H](Cc1cccnc1)C(=O)O; X16 = O=C(C1CC(CN[*:1])C1)[*:2]; X73 = O=C(CC1CC(N[*:1])C1)[*:2]; d(αMeC) = C[C@@](N)(CS)C(=O)O; Cba = N[C@@H](CC1CCC1)C(=O)O; αMeC = C[C@](N)(CS)C(=O)O; Nle = CCCC[C@H](N)C(=O)O; Orn = NCCC[C@H](N)C(=O)O

The chains behind the UniProt entries cited, without tags or fusion partners. Residues count along the entry.
UniProt P01116, 1-188 isoform P01116-2 G12D: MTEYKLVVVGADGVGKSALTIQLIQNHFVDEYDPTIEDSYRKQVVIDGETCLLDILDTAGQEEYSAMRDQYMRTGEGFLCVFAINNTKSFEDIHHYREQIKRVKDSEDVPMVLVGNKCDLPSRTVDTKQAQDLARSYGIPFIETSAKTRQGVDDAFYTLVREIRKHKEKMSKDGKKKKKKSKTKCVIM

Molecular target: KRAS-G12D protein (Homo sapiens, UniProt P01116, G12D)
Experiment: SOS-mediated nucleotide exchange assay (BODIPY-GDP / Tb-streptavidin TR-FRET)
Assay type: biochemical

Structure (SMILES) | pEC50
CCCC[C@@H]1NC(=O)[C@H](Cc2ccc(CN3CCOCC3)cc2)NC(=O)[C@H](CCCNC(=N)N)NC(=O)[C@H](Cc2ccccc2)NC(=O)[C@H]2C[C@@H](CNC(=O)[C@H](Cc3ccccc3)N(C)C(=O)[C@H](CCCC)NC(=O)[C@H](Cc3ccc(OC)cc3)NC1=O)C2 [compound 209, cyclo(F-R-Phe4cMph-Nle-TyrOMe-Nle-NMeF-c3amCb1c)] (cyclo(FR[X52][Nle]Y(Me)[Nle][NMeF][cBu(1-CO,cis-3-CH2NH)])) | 7.22
CCCC[C@@H]1NC(=O)[C@H](Cc2cccnc2)NC(=O)[C@H](CCCNC(=N)N)NC(=O)[C@H](Cc2ccccc2)NC(=O)CC2CC(C2)NC(=O)[C@H](Cc2ccccc2)N(C)C(=O)[C@H](CCCC)NC(=O)[C@H](Cc2ccc(OC)cc2)NC1=O [compound 153, cyclo(F-R-3Pal-Nle-TyrOMe-Nle-NMeF-cBuAc)] (cyclo(FR[3Pal][Nle]Y(Me)[Nle][NMeF][X73])) | 6.93
CCC[C@@H]1NC(=O)[C@H](Cc2ccc(OC)cc2)NC(=O)[C@H](CC(C)C)NC(=O)[C@H](Cc2ccncc2)NC(=O)[C@H](CCCNC(=N)N)NC(=O)[C@H](Cc2ccc(F)cc2)NC(=O)CSC[C@H](C(N)=O)NC(=O)[C@H](Cc2ccccc2)N(C)C1=O [compound 24, cyclo(Phe4F-R-4Pal-L-TyrOMe-Nva-NMeF-dCl-ClAc)] | 5.93
CCCC[C@@H]1NC(=O)[C@H](Cc2cccnc2)NC(=O)[C@H](CCCNC(=N)N)NC(=O)[C@H](Cc2ccccc2)NC(=O)CSC[C@@](C)(C(N)=O)NC(=O)[C@H](Cc2cccnc2)N(C)C(=O)[C@H](CCCC)NC(=O)[C@H](COC)NC1=O [compound 41, cyclo(F-R-3Pal-Nle-SerOMe-Nle-NMe3Pal-aMeCl-ClAc)] ({CH2CO}-FR[3Pal][Nle]S(Me)[Nle][NMe3Pal][αMeC]-NH2; thioether N-8) | 5.19
CCCC[C@@H]1NC(=O)[C@H](Cc2ccc(OC)cc2)NC(=O)[C@H](CC2CCC2)NC(=O)[C@H](Cc2cccnc2)NC(=O)[C@H](CCCNC(=N)N)NC(=O)[C@H](Cc2ccccc2)NC(=O)[C@@H]2C[C@H]2CNC(=O)[C@H](Cc2ccccc2)N(C)C1=O [compound 99, cyclo(F-R-3Pal-cBuA-TyrOMe-Nle-NMeF-tamcPr)] (cyclo([3Pal][Cba]Y(Me)[Nle][NMeF][X21]FR)) | 7.78
CCCC[C@@H]1NC(=O)[C@H](Cc2cccnc2)NC(=O)[C@H](CCCn2ccnc2)N(C)C(=O)[C@H](Cc2ccccc2)OC(=O)C2CC(CNC(=O)[C@H](Cc3cccnc3)N(C)C(=O)[C@H](CCCC)NC(=O)[C@H](Cc3ccccc3F)NC1=O)C2 [compound 95, cyclo(FLac-NMeNvalmid-3Pal-Nle-Phe2F-Nle-NMe3Pal-c3amCblc)] (cyclo([3Pal][Nle][Phe(2-F)][Nle][NMe3Pal][X16][PhLac][NMeNva(5-imidazol-1-yl)])) | 6.12
CCCC[C@@H]1NC(=O)[C@H](Cc2ccc(O)cc2)NC(=O)[C@H](CC2CCC2)NC(=O)[C@H](Cc2cccnc2)NC(=O)[C@H](CCCNC(=N)N)NC(=O)[C@H](Cc2cccc3ccccc23)NC(=O)CSC[C@H](C(=O)O)NC(=O)[C@H](Cc2cccnc2)N(C)C1=O [compound 329, cyclo(INal-R-3Pal-cBuA-Y-Nle-NMe3Pal-dC-ClAc)] ({CH2CO}-[1Nal]R[3Pal][Cba]Y[Nle][NMe3Pal][dC]-OH; thioether N-8) | 7.93
CCCC[C@@H]1NC(=O)[C@H](Cc2ccccc2F)NC(=O)[C@H](CC2CCC2)NC(=O)[C@H](Cc2cccnc2)NC(=O)[C@H](CCCN)NC(=O)[C@H](Cc2ccc(OC)cc2)NC(=O)CSC[C@](C)(C(N)=O)NC(=O)[C@H](Cc2cccnc2)N(C)C1=O [compound 33, cyclo(TyrOMe-Or-3Pal-cBuA-Phe2F-Nle-NMe3Pal-daMeCl-ClAc)] ({CH2CO}-Y(Me)[Orn][3Pal][Cba][Phe(2-F)][Nle][NMe3Pal][d(αMeC)]-NH2; thioether N-8) | 5.67
